Among the data in patent US6890716 are binding values, retold here.

Sequences of proteins named here, by UniProt entry; tags and fusion partners are left off. A change or cut given only in a name is not applied to a line headed by its entry.
UniProt Q07817: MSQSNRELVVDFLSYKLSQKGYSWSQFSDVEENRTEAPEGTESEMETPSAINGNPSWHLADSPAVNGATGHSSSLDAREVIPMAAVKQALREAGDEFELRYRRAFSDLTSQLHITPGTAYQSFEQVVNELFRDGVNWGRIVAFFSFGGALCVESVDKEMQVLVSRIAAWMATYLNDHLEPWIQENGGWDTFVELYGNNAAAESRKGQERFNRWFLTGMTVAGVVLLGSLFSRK
UniProt P10415: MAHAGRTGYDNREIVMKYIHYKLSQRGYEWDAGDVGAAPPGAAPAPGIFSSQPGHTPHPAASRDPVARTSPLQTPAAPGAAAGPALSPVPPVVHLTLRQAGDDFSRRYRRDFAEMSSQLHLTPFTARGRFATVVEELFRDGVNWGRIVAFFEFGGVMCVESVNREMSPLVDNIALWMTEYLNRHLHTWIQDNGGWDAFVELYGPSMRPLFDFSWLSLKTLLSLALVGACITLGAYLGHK
UniProt Q9NYF8: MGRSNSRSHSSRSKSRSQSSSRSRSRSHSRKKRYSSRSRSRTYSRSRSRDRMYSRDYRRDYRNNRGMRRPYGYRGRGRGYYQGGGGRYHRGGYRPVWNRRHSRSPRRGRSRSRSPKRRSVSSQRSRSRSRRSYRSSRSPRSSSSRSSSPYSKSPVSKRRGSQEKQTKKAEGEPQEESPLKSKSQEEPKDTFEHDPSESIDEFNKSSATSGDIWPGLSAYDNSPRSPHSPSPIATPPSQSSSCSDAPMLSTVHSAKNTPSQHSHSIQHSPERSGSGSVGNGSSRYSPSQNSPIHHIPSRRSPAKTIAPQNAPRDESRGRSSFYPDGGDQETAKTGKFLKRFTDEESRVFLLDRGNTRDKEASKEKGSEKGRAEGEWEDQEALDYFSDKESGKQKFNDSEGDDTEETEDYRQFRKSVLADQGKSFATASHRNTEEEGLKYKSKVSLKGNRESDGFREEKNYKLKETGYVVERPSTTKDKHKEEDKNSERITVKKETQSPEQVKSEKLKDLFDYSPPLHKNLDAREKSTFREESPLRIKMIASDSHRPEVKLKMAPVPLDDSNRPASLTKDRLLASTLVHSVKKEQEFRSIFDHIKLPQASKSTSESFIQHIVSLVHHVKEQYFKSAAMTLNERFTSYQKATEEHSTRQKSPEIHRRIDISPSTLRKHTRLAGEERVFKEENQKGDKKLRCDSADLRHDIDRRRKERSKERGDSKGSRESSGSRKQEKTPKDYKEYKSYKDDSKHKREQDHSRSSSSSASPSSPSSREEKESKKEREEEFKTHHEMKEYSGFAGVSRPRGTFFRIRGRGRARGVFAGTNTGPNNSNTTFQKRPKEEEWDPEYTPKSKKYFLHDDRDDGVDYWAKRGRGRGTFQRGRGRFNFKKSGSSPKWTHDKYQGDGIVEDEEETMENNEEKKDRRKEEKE
UniProt Q07812: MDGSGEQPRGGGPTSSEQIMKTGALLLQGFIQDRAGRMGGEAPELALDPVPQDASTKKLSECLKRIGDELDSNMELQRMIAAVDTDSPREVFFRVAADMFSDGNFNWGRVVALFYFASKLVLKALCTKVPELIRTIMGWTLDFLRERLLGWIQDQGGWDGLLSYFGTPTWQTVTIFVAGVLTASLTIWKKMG

For assay [1], the target named is Bcl-xL two-hybrid fusion (pGBT8-Bcl-xL) (UniProt P04386). Put plainly: yeast two-hybrid.
The target of assay [2] is T1, V5/His-E1B 19K (C-terminally V5/His tagged E1B 19K) (adenovirus) (UniProt P03246).
T1 sequence: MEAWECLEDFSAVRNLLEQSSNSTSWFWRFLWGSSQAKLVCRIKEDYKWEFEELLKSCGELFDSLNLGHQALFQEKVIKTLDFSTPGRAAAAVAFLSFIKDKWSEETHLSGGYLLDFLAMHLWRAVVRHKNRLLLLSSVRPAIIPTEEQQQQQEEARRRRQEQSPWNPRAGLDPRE
Put plainly: in vitro translated proteins, immunoprecipitation with anti-Myc antibody.

Assay [3] concerns the target T1, V5/His-E1B 19K (C-terminally V5/His tagged E1B 19K) (adenovirus). Put plainly: in vitro translated proteins, immunoprecipitation with anti-Myc antibody, figure legend.
Assay [4] has as its target Flag-Bcl-xL (pcDNA3-Flag-Bcl-xL) (UniProt Q07817). The assay is described as above.
Assay [5] has as its target Bcl-2 (pcDNA3-Bcl-2) (human) (UniProt P10415). The assay is described as above.
In assay [6] the target is Flag-Bcl-xL (pcDNA3-Flag-Bcl-xL) (UniProt Q07817). Nature of the assay: in vitro translated proteins, immunoprecipitation with anti-Myc antibody.
Assay [7] addresses Bcl-2 (pcDNA3-Bcl-2) (human) (UniProt P10415). The assay is described as above.

These are yes or no findings as the source states them, for the method shown. Some entries that bind do so weakly or less than the wild type. For some assays here: Tags and fused reporters may be left off the sequences shown.

On to “BtfS in the yeast two-hybrid assay (pGAD-GH-BtfS) (from UniProt Q9NYF8 1-920)”, for which the binding result in assay [1] is “binds”.
On to Myc-Bax (from UniProt Q07812 1-192), for which the binding result in assay [2] is reported as “binds”.
Regarding “Myc-BtfS (pcDNA3-Myc-BtfS) (from UniProt Q9NYF8 1-920)”, the binding result in assay [3], in assay [4], in assay [5], in assay [2], in assay [6] and in assay [7] was “binds” throughout.
